Results as given in article doi:10.1101/2020.07.24.220640.

Chains of the proteins cited; added tags and fusions are not shown.
UniProt P13395: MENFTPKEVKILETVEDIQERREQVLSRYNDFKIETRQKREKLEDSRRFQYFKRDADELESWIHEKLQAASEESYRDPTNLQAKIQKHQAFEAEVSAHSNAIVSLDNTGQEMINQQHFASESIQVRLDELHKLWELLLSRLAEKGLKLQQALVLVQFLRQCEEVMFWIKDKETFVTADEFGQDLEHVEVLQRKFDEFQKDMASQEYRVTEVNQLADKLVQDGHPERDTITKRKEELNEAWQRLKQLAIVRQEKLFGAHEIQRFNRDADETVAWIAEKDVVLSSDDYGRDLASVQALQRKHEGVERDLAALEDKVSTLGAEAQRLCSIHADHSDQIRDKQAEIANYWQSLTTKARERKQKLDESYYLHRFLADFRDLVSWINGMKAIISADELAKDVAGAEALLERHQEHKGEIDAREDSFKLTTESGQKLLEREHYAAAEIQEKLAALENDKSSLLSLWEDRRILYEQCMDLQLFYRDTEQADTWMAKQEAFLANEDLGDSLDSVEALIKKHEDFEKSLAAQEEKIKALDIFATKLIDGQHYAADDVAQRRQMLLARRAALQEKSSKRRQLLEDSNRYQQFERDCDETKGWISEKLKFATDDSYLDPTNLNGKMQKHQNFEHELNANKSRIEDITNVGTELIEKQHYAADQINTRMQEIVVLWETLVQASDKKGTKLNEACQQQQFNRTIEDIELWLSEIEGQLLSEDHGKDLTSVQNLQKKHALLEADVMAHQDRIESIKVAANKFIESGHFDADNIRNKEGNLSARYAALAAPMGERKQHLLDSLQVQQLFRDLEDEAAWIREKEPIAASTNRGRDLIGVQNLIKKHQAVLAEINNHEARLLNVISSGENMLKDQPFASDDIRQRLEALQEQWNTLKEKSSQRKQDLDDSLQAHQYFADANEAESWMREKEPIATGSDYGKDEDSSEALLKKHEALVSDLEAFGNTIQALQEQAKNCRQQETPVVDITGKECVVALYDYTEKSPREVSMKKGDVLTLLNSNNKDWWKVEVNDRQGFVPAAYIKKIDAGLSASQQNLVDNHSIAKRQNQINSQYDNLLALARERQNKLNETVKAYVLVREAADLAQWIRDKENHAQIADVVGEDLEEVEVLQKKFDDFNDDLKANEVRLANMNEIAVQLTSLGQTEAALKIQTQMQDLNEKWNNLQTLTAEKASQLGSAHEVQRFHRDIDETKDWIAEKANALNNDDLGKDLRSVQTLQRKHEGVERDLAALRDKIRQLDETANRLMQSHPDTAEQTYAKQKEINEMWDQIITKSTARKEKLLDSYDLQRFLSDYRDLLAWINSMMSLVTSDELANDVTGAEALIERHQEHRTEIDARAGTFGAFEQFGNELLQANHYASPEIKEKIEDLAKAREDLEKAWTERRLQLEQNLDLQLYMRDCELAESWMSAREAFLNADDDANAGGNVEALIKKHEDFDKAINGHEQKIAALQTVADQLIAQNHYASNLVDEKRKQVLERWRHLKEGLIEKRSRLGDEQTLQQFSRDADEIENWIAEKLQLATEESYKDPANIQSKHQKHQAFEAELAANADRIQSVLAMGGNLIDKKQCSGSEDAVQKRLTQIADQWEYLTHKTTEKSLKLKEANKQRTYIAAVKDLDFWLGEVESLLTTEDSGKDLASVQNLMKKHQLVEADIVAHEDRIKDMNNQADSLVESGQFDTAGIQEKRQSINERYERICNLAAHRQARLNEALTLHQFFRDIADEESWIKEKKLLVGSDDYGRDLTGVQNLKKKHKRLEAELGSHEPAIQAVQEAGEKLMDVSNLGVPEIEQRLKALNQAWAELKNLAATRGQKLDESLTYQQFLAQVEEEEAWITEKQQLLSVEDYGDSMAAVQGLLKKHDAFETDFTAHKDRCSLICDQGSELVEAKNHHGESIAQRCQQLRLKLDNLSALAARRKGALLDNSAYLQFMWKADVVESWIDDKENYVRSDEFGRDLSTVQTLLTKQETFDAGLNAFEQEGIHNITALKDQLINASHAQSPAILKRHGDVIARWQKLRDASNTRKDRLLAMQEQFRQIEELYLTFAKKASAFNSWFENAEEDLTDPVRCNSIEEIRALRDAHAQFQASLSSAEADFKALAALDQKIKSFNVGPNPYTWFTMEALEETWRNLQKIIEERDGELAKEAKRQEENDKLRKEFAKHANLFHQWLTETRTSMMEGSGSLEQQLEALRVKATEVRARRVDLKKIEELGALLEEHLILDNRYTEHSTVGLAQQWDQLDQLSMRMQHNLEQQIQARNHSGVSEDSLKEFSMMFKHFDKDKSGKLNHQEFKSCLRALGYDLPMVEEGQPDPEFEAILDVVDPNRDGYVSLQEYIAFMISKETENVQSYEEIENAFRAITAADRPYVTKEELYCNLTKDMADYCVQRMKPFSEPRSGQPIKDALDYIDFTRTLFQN

Target: α-Spectrin (Drosophila melanogaster (endogenous in testis)) (UniProt P13395)
Experiment: affinity purification with mass spectrometry

binding: binds
B1: Hsp27 (protein, UniProt P02518 1-213)
chain: MSIIPLLHLARELDHDYRTDWGHLLEDDFGFGVHAHDLFHPRRLLLPNTLGLGRRRYSPYERSHGHHNQMSRRASGGPNALLPAVGKDGFQVCMDVSQFKPNELTVKVVDNTVVVEGKHEEREDGHGMIQRHFVRKYTLPKGFDPNEVVSTVSSDGVLTLKAPPPPSKEQAKSERIVQIQQTGPAHLSVKAPAPEAGDGKAENGSGEKMETSK

No constants are given. Whether binding was seen depends on the method and setting. Binding seen in cells or lysates may run through a third protein. A yes stands for co-enrichment or nearness to the bait. Other partners may have been found.
